Values from PubChem BioAssay AID504786 (Drosophila RNAi Screening Center, 2011)
The screen tested about 21,000 reagents; this is a random part of those with a known target gene and a result. 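Primary screen; positive scores mean lost reporter signal, so the sign may be inverted from the usual convention.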 The numbers tell different reagents against one gene apart. A plus sign joins genes that one reagent is predicted to hit. Further read-outs or replicates are left out here.

- Assay: 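Knock-downs reducing HIF reporter induction by the iron chelator DFO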 (primary screen)
- Cells: Drosophila S2 cells with a stable HIF luciferase reporter
- Reagent: long dsRNA against Drosophila genes, about 0.2 µg dsRNA per well of a 384-well plate
- Timing: three days of knock-down, then 20 h of DFO before reading
- Conditions: desferrioxamine (DFO) at 100 µM, an iron chelator that mimics hypoxia, for 20 h
- Measured: 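HIF reporter luminescence in cells given 100 µM DFO for 20 h, using the mouse ldh-a hypoxia-response element, scored as per-plate z-scores; higher means greater loss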
- Reading the numbers: z-score: higher = stronger loss of HIF reporter signal

With knock-down of prd the results were z-score, replicate 1 = -0.3.
With knock-down of CG17650, the screen gave z-score, replicate 1 = -0.3.
Knock-down of Gip came out at: z-score, replicate 1 = 0.2.
CG17778 showed z-score, replicate 1 = -0.1.
CkIIbeta2 showed z-score, replicate 1 = -0.2.
CG12911 gave z-score, replicate 1 = -0.3.
After knock-down of CG9395, the screen gave z-score, replicate 1 = -0.3.
Silencing of CG8861 #1 came out at: z-score, replicate 1 = 0.
After knock-down of CG8861 #2, the record shows z-score, replicate 1 = -0.5.
For Srg3 #1, the values are z-score, replicate 1 = -0.1.
After knock-down of Srg3 #2, the screen gave z-score, replicate 1 = -0.1.
For CG2931, the values are z-score, replicate 1 = -0.5.
CG33263 showed z-score, replicate 1 = -0.2.
Knock-down of RpL29 resulted in: z-score, replicate 1 = -0.3.
CG15200 showed z-score, replicate 1 = -0.3.
With knock-down of Dim1 the results were z-score, replicate 1 = 2.6.
Against CG11756, the entry reads z-score, replicate 1 = -0.4.
After knock-down of CG13738, the record shows z-score, replicate 1 = -0.6.
CG34005 scored z-score, replicate 1 = -0.4.
Knock-down of Lamtor2 + CG30120 #1 gave: z-score, replicate 1 = 0.7.
Lamtor2 + CG30120 #2 scored z-score, replicate 1 = -0.2.
For CG31195, the values are z-score, replicate 1 = -0.4.
Knock-down of Ars2 gave: z-score, replicate 1 = 1.6.
For l(1)G0004, the values are z-score, replicate 1 = -0.2.
Orc5 scored z-score, replicate 1 = -0.3.

Look-ups from above.
CG2931, z-score, replicate 1 = -0.5
Value of CG8861 #2 under “z-score, replicate 1”: -0.5
For “z-score, replicate 1”, Srg3 #1 has -0.1
Value of CkIIbeta2 under “z-score, replicate 1”: -0.2
CG13738, z-score, replicate 1 → -0.6

Additional records:
After knock-down of tsg, the screen gave z-score, replicate 1 = -0.3.
For CG33144 #1 the deposit lists z-score, replicate 1 = -0.5.
After knock-down of CG33144 #2, the screen gave z-score, replicate 1 = -0.2.
After knock-down of Fbxl4 the results were z-score, replicate 1 = -0.3.
CG31373 gave z-score, replicate 1 = -0.1.
EMC3 showed z-score, replicate 1 = 0.1.
For CG14453, the values are z-score, replicate 1 = -0.4.
Depletion of CG6126 resulted in: z-score, replicate 1 = -0.3.
After knock-down of CG10340, the record shows z-score, replicate 1 = -0.3.
Against EMC8-9, the values are z-score, replicate 1 = -0.2.
For ATPsynbeta, the entry reads z-score, replicate 1 = 0.6.
Silencing of be #1 resulted in: z-score, replicate 1 = -0.3.
Silencing of be #2 resulted in: z-score, replicate 1 = -0.4.
With knock-down of be #3, the record shows z-score, replicate 1 = -0.5.
Depletion of olf413 #1 resulted in: z-score, replicate 1 = -0.1.
After knock-down of olf413 #2, the screen gave z-score, replicate 1 = -0.3.
With knock-down of olf413 #3 the results were z-score, replicate 1 = -0.3.
olf413 #4 gave z-score, replicate 1 = -0.3.
